# Values quoted from earlier work in patent publication US20100081719A1 (priority 2006, published 2010).
# At least one compound was matched to its structure with a doubt left.
# Test system: FMS patients
# Details: two placebo-controlled trials; cited from earlier work
structure (smiles),measurement,value
CN(C)CCCC1(c2ccc(F)cc2)OCc2cc(C#N)ccc21 (stereo not shown) [citalopram],Outcome of placebo-controlled trials in FMS patients,convincingly negative
